# Values joined by “and” are separate entries in the source; they are usually repeats but may differ in a detail not shown here. Equal entries are not always repeated. The campaign covered roughly 410,000 compounds. About 18,000 (4.4%) were called active. Inconclusive results, whose numbers are uncertain, are shown with a selection of clear calls. Rule as the data show it: active = activity change below about -60%; inconclusive = no clear call, values can overlap the other calls; inactive = above about -39%.
# Experiment: qHTS Assay for inhibitors of the human cytomegalovirus (HCMV)
# Details: HFF cells, HCMV-luciferase reporter, 72 h; at 57.5 µM; stronger effect = lower value
# Summary of the method: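 Screen run at 2 compound doses on HFFs infected with reporter HCMV, MOI 1 PFU/cell. Luciferase activity from cell lysates at 72 h post infection gave inhibition relative to buffer-only and Salinomycin wells.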
# % is scaled to controls: 0 for no effect and ±100 for the full control effect.
row,Structure (SMILES),"activity change, negative = inhibition"
1,CC1(C)CC(=O)C=C(c2ccc3ncccc3c2)C1,active: -83.3%
2,COc1ccc2c(Sc3ccccc3)c(C(=O)NCc3cc(Br)ccc3OC)[nH]c2c1,inactive: 5.22%
3,Cc1ccc(CNCCc2ccccc2F)cc1,inconclusive: -46.2%
4,O=C(Nc1ccccc1N1CCOCC1)c1cccc2c(Br)cccc12,inconclusive: -42.3%
5,COc1ccccc1C(=O)NCC(=O)n1nc(C)cc1C,inactive: -3.11%
6,COc1ccc(NC(=O)COc2ccccc2Cl)cc1S(=O)(=O)N1CCCCC1,inconclusive: -40.4%
7,O=[N+]([O-])c1cncc([N+](=O)[O-])c1Nc1ccccc1Cl,inconclusive: -44.1%
8,CN(C)S(=O)(=O)c1ccc(Cl)c(C(=O)NCCNC(=O)c2cc(S(=O)(=O)N(C)C)ccc2Cl)c1,inconclusive: -48.6%
9,O=C(CCS(=O)(=O)c1cccc2nonc12)Nc1ccc(F)cc1F,inconclusive: -47%
10,C=CCOc1cccc(C(=O)N(C)C2CCCN(Cc3ccccc3F)C2)c1 (stereo unspecified),inconclusive: -45.9%
11,CCOc1ccc(S(=O)(=O)N2CCN(c3ccccc3F)CC2)c2cccnc12,inconclusive: -58.7%
12,COc1ccccc1N1CCN(C(=O)c2ccc3c(c2)CCN3S(=O)(=O)c2ccccc2)CC1,inconclusive: -56.7%
13,CC(=O)Nc1ccc(N2C(=O)c3cccc4c(O)ccc(c34)C2=O)cc1,inconclusive: -43.5%
14,CCc1ccccc1NC(=O)CN(C1CCCCC1)S(C)(=O)=O,inconclusive: -42.4%
15,Cc1ccc(-c2nnn(CC(=O)N3c4ccccc4CCc4ccccc43)n2)cc1,inconclusive: -58.9%
16,CN1/C(=C\C(=O)Nc2ccc(Br)cc2)C(C)(C)c2ccccc21,inactive: 9.16%
17,COc1ccc2cc(CN(CC3CCCO3)C(=O)Nc3ccccc3)c(=O)[nH]c2c1 (stereo unspecified),inactive: -26.8%
18,CSc1ccc(C(=O)C2CCCN(Cc3cnc(SC)nc3)C2)cc1 (stereo unspecified),inconclusive: -46.6%
19,Cc1c(CC(=O)NCc2ccccc2Cl)c(=O)oc2cc(O)ccc12,inactive: 5.05%
20,CCOC(=O)Cn1nc(-c2ccccc2)c2cnc3ccc(CC)cc3c21,inconclusive: -49.7%
21,CCSC1(SCC)N=C(N)C2(C#N)C(c3ccc(F)cc3)C12C#N (stereo unspecified),active: -107%
22,CC(C)(C)c1ccc(C(=O)CC(=O)c2cc(Cl)ccc2O)cc1,active: -83.4%

row,Structure (SMILES),"activity change, negative = inhibition"
1,O=C(CSc1nnc(-c2ccc(Cl)cc2)n1Cc1ccco1)Nc1ccc2c(c1)OCCO2,inconclusive: -41.7%
2,Cn1c(SC(C(=O)Nc2ccc(F)cc2)c2ccccc2)nc2ccccc21 (stereo unspecified),inconclusive: -43.3%
3,Cc1cccn2c(Nc3ccccc3)c(-c3ccccn3)nc12,active: -66.2%
4,O=C(c1ccccc1)n1c(=S)nc2ccccn21,inactive: 13.7%
5,O=C(Nc1ccncc1)c1ccc(S(=O)(=O)Nc2ccccc2)cc1,inconclusive: -60%
6,C/C(N)=C(/C#N)C(=O)CSc1nc2ccccc2c(=O)n1CCCOC(C)C,inconclusive: -48.3%
7,CC(C)C(=O)NC(C)C(c1cccs1)N1CCOCC1 (stereo unspecified),inactive: 2.14%
8,CCOC(=O)C1=C(CC)Nc2ccccc2N=C1NC(=O)c1oc2ccccc2c1C,inactive: 68.8%
9,CN(C)c1ccc(-c2csc(C(C)(O)c3cccc(F)c3)n2)cc1 (stereo unspecified),inconclusive: -46.8%
10,Cc1cc2oc(C(=O)Nc3c(C)n(C)n(-c4ccccc4)c3=O)cc(=O)c2cc1C,inactive: 13%
11,Nc1nonc1-n1nnc(C(=O)N/N=C/c2c(Cl)cccc2Cl)c1CSC1=NCCS1,inconclusive: -57.2%
12,CCC(C)n1c(SCC(=O)NC(=O)c2cccn2C)nc2ccccc2c1=O (stereo unspecified),inconclusive: -43.8%
13,O=C(CCC1CCCCC1)NCCN1C2=NC[C@H](Cc3ccc(O)cc3)N2C[C@H]1Cc1ccc(O)cc1,inconclusive: -55.6%
14,Cc1ccc(-c2nnc(SCC(=O)NC3CCS(=O)(=O)C3)nc2-c2ccc(C)cc2)cc1 (stereo unspecified),inactive: -15.4%
15,O=C(c1cc2nc(-c3ccc(F)cc3)cc(C(F)(F)F)n2n1)N1CCCCC1c1cccnc1 (stereo unspecified),active: -89.9%
16,CCOc1cc(CNc2ccc3c(c2)OCCO3)cc(Br)c1OC,active: -86.5%
17,COc1ccc(N(CC(O)Cn2c(C)nc3ccccc32)S(=O)(=O)c2ccc(C)cc2)cc1 (stereo unspecified),inactive: -35.5%
18,CN(C)S(=O)(=O)c1cccc(CSCc2cccc(S(=O)(=O)N(C)C)c2)c1,active: -92%
19,COc1ccc(NC(=O)/C(N=Nc2cccc(S(=O)(=O)Nc3ccc(SC(F)F)cc3)c2)=C(\C)O)cc1,active: -70.6%
20,Cc1ccc(-c2noc(CCC(=O)NCC3CCN(Cc4cccc(C)c4)CC3)n2)cc1,inconclusive: -43.5%
21,O=C(CCCn1c(=O)c2ccccc2n(Cc2cccc(F)c2)c1=O)NCc1ccccc1Cl,inactive: -4.06%
22,Cc1ccc(Nc2ccc(S(=O)(=O)N3CCOCC3)cc2[N+](=O)[O-])c(C)c1,active: -64.8%

row,Structure (SMILES),"activity change, negative = inhibition"
1,CC(=NCc1ccco1)c1c(C(F)(F)F)[nH]n(-c2nc3ccccc3s2)c1=O,inconclusive: -58.2%
2,COc1ccccc1C(=O)NC(=O)COC(=O)c1oc2ccccc2c1C,inconclusive: -41.8%
3,Cc1ccc(S(=O)(=O)c2nc(-c3ccc(F)cc3)oc2SCC(N)=O)cc1,inconclusive: -44.9%
4,CCCc1cc(=O)[nH]c(SCC(=O)NC(=O)NC2CCCC2)n1,inconclusive: -48.7%
5,Cc1ccc2nc(SCC(=O)N3CCC(Cc4ccccc4)CC3)nc(=O)n2c1,inconclusive: -52.4%
6,O=C(Nc1ccccn1)c1ccc(=O)[nH]n1,inactive: -6.06%
7,O=C(c1cccc([N+](=O)[O-])c1)c1ccccn1,inactive: -29.8%
8,Cc1cc2c(cc1S(=O)(=O)Nc1cccc(Cl)c1C)OCCN2C,inconclusive: -55.1%
9,Cc1c(-c2nc(-c3ccc4c(c3)OCO4)no2)nnn1-c1cccc(C(F)(F)F)c1,inconclusive: -50.3%
10,COc1ccc(S(=O)(=O)N(C)C[C@H]2Oc3ccc(NC(=O)Nc4ccc(C(F)(F)F)cc4)cc3C(=O)N([C@H](C)CO)C[C@@H]2C)cc1,inconclusive: -56%
11,O=C(CCc1ccccc1)Nc1nnc(-c2ccccn2)o1,inconclusive: -41.1%
12,Nc1nc(=O)n(C2CC(O)C(CO)O2)cc1F (stereo unspecified),active: -97.3%
13,O=C(/C=C/c1ccco1)Oc1cc(Br)cc(/C=N/NC(=O)c2ccccc2O)c1,active: -101%
14,O=C(c1ccc(Br)s1)N1CCN(c2ccccn2)CC1,inactive: -1.97%
15,Oc1cccc(Nc2nc(-c3ccccc3Cl)nc3ccccc23)c1,inconclusive: -51.8%
16,Cc1ccc(OCCOCCN2CCN(C)CC2)c([N+](=O)[O-])c1,inconclusive: -48%
17,Cc1ccc(-c2nnn(CC(=O)N(CC(=O)NC3CCCC3)c3cccc(F)c3)n2)o1,active: -85.5%
18,CCCCCNc1nc(-c2ccccc2)nc(-n2ccnc2)n1,inconclusive: -50.3%
19,O=C(Nc1ccccc1)c1cccnc1NCCc1ccccc1,inconclusive: -56.6%
20,O=C(CCc1ccccc1)OCC(=O)c1ccc(Br)cc1,inconclusive: -46.4%
21,COc1nc2ccccc2c(=O)n1-c1ccc(Cl)cc1,active: -61.4%
22,Cc1ccc(S(=O)(=O)NC(CCC(N)=O)C(=O)NCc2ccc3c(c2)OCO3)c(C)c1 (stereo unspecified),inactive: -24.4%

row,Structure (SMILES),"activity change, negative = inhibition"
1,Cc1occc1-c1nnc(SCC(=O)Nc2nccs2)n1CCc1ccccc1,inconclusive: -44.9%
2,COc1ccc(Cn2c(CO)cnc2SCC(=O)NCc2ccco2)cc1,inactive: 11.2%
3,CCN1CCN(S(=O)(=O)c2ccc(Cl)c(C(=O)N(C)C3CCCCC3)c2)CC1,inconclusive: -49.8%
4,O=C(CN1C(=O)c2ccccc2S1(=O)=O)NC1CCCCCC1,active: -74.5%
5,Clc1ccccc1OCc1nnc(-c2ccccc2)o1,inconclusive: -41.2%
6,COc1cc(NC(=O)CC(C)S(=O)(=O)c2cc3c4c(c2)CCN4C(=O)CC3)cc(OC)c1 (stereo unspecified),inactive: -1.7%
7,CC(CCc1ccc(O)cc1)NC1C2CC3CC(C2)CC1C3 (stereo unspecified),inactive: 6.2%
8,CN(C)/C=N/c1nc(-c2ccc3ccccc3c2)cs1,inactive: 129%
9,CCOC(=O)N1CCC(Nc2ccc3nnc(-c4ccccc4)n3n2)CC1,inactive: 135%
10,O=[N+]([O-])c1ccc(O)c(/C=N/Nc2ccccc2[N+](=O)[O-])c1,inconclusive: -57.6%
11,CC(=O)Nc1ccc(SCC(=O)OCC(=O)NC(=O)NCCC(C)C)cc1,inconclusive: -45.7%
12,Clc1ccc(Nc2nc(-c3ccccc3)c3cc(Cl)ccc3n2)cc1,active: -60.5%
13,Cc1ccccc1NC(=O)C1CCN(C(=O)NC2CCCCC2)CC1,inconclusive: -44.4%
14,NS(=O)(=O)c1ccc(CCNC(=O)COC(=O)CCc2ccccc2)cc1,inconclusive: -43.5%
15,CC(=O)c1cc2c(cc1NC(=O)Cn1nc(-c3ccc(F)cc3)ccc1=O)OCO2,inconclusive: -41.4%
16,COc1ccc(/C=C/C(=O)c2ccc(O)cc2)cc1CN1CCOCC1,inconclusive: -49.4%
17,CCS(=O)(=O)c1ccc2oc(SCC(=O)NCCc3ccc(F)cc3)nc2c1,inconclusive: -56.7%
18,O=C(COC(=O)c1ccccc1OCc1ccc(Cl)cc1)NCC1CCCO1 (stereo unspecified),inconclusive: -40.8%
19,CCCCN(C)C(=O)Cn1cnc2sc(C)c(S(=O)(=O)N3CCN(c4ccccc4OC)CC3)c2c1=O,inactive: 1.56% and inactive: -19.2%
20,Cc1cccc2cc3c(N)c(C(=O)N4CCCc5ccccc54)sc3nc12,active: -66.1%

# Of the compounds above, four contain a thiophene ring, fused or not.
row,Structure (SMILES),"activity change, negative = inhibition"
7,CC(C)C(=O)NC(C)C(c1cccs1)N1CCOCC1 (stereo unspecified),inactive: 2.14%
14,O=C(c1ccc(Br)s1)N1CCN(c2ccccn2)CC1,inactive: -1.97%
19,CCCCN(C)C(=O)Cn1cnc2sc(C)c(S(=O)(=O)N3CCN(c4ccccc4OC)CC3)c2c1=O,inactive: 1.56% and inactive: -19.2%
20,Cc1cccc2cc3c(N)c(C(=O)N4CCCc5ccccc54)sc3nc12,active: -66.1%

# Source: PubChem BioAssay AID1259415 (National Center for Advancing Translational Sciences (NCATS), 2018)
